Data as given in PubChem BioAssay AID1224828 (NIAID, 2016).
Assay: 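Knock-downs that increase or decrease LPS-induced p65 nuclear translocation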 (primary screen). System: mouse RAW264.7 G9 macrophage reporter cells (GFP-p65, Tnf promoter-mCherry). Reagent: siRNA pool against mouse genes, 100 nM. Time to read-out: 2 days siRNA transfection, then 40 min LPS before fixation. Conditions: LPS (Salmonella minnesota R595) at 10 ng/ml. Measured: 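Imaged p65 nuclear translocation ratio, normalised to the plate median, converted to robust z-scores and averaged across two replicates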. Scale: p65 translocation robust z-score: higher = more nuclear NF-kappaB p65 after LPS than the plate median; nuclear/cytoplasmic p65 ratio: higher = more nuclear NF-kappaB p65. Call rule: 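Active if robust z is above 3.3 (negative regulators) or below -1.56, the Tlr4 control median (positive regulators); activity score 50 or more; control wells not called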. Calls: active = hit (p65 shift raised or lowered); inactive = no clear change.
The deposit covers about 17,000 reagents; this is a random part of them. In the full data, 762 (4.5%) were called active. 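Active calls include both raised and lowered p65 entry, mostly lowered; wells with fewer than 50 cells lack a z-score.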 The raw values are shown without normalisation. Reagents against one gene are numbered here.

target gene,reagent no.,p65 translocation robust z-score,"nuclear/cytoplasmic p65 ratio, rep 1","nuclear/cytoplasmic p65 ratio, rep 2",low cell count flag,call
Smurf2 (GeneID 66313),1,0.88,1.63,1.86,enough cells to score,inactive
Kcnip4 (GeneID 80334),1,1.85,1.81,1.68,enough cells to score,inactive
Gzmb (GeneID 14939),1,1.16,1.58,1.53,enough cells to score,inactive
Cnnm2 (GeneID 94219),1,-1.31,1.53,1.21,enough cells to score,inactive
Bsg (GeneID 12215),1,0.78,1.74,1.72,enough cells to score,inactive
Tbc1d10b (GeneID 68449),1,0.45,1.6,1.51,enough cells to score,inactive
2210016L21Rik (GeneID 72357),1,,1.5,1.19,fewer than 50 cells per well; well left out of scoring,inactive
9130401M01Rik (GeneID 75758),1,-0.69,1.32,1.46,enough cells to score,inactive
Gm9758 (GeneID 381714),1,0.15,1.87,1.45,enough cells to score,inactive
Tmem117 (GeneID 320709),1,0.42,1.52,2.05,enough cells to score,inactive
Iscu (GeneID 66383),1,,1.45,1.43,fewer than 50 cells per well; well left out of scoring,inactive
Pno1 (GeneID 66249),1,,1.61,1.51,fewer than 50 cells per well; well left out of scoring,inactive
Nfatc1 (GeneID 18018),1,,1.3,1.07,fewer than 50 cells per well; well left out of scoring,inactive
Erlec1 (GeneID 66753),1,,1.29,1.23,fewer than 50 cells per well; well left out of scoring,inactive
Loxhd1 (GeneID 240411),1,,1.15,1.24,fewer than 50 cells per well; well left out of scoring,inactive
Gdf2 (GeneID 12165),1,0.16,1.43,1.41,enough cells to score,inactive

3 entries from above, ordered by “nuclear/cytoplasmic p65 ratio, rep 2”, highest first.
target gene,reagent no.,p65 translocation robust z-score,"nuclear/cytoplasmic p65 ratio, rep 1","nuclear/cytoplasmic p65 ratio, rep 2",low cell count flag,call
Tmem117 (GeneID 320709),1,0.42,1.52,2.05,enough cells to score,inactive
Pno1 (GeneID 66249),1,,1.61,1.51,fewer than 50 cells per well; well left out of scoring,inactive
Iscu (GeneID 66383),1,,1.45,1.43,fewer than 50 cells per well; well left out of scoring,inactive

Additional entries:
target gene,reagent no.,p65 translocation robust z-score,"nuclear/cytoplasmic p65 ratio, rep 1","nuclear/cytoplasmic p65 ratio, rep 2",low cell count flag,call
Trappc2 (GeneID 66226),1,-0.03,1.44,1.19,enough cells to score,inactive
Or5b101 (GeneID 258695),1,0.83,1.65,1.6,enough cells to score,inactive
Selenow (GeneID 20364),1,0.67,1.6,1.24,enough cells to score,inactive
Rhbdl2 (GeneID 230726),1,0.89,1.53,1.69,enough cells to score,inactive
Fry (GeneID 320365),1,-0.63,1.45,1.49,enough cells to score,inactive
Fry (GeneID 320365),2,-0.47,1.38,1.46,enough cells to score,inactive
Adgrf5 (GeneID 224792),1,-0.93,1.39,1.43,enough cells to score,inactive
Sugp1 (GeneID 70616),1,,1.47,1.27,fewer than 50 cells per well; well left out of scoring,inactive
